Mtb heat-shock: 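Assay on Mycobacterium tuberculosis, filed only as a heat shock assay from Cornell; the read-out is not stated. The concentration is filed as 10 mM, unlikely as a test dose, so the dose is not known. The record gives no direction; compounds that gave an IC50 in retests scored well above the rest, so higher reads as stronger inhibition. Size under these conditions: about 69,000 compounds, about 930 of them at 50% or above in at least one test.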
LdMetRS: 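Methionyl-tRNA synthetase (putative), Leishmania donovani (UniProt E9BF75). Primary screen of methionyl-tRNA synthetase; the read-out is not stated. The test concentration is not given. The values are filed as inhibition. About 68,000 compounds were tested under these conditions; 0.035% (about 24) showed 50% or more at least once.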
Mtb growth Cornell: 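Whole-cell assay for inhibitors of Mycobacterium tuberculosis growth, labelled Cornell in the record; the read-out is not stated. The concentration is filed as 10 mM, unlikely as a test dose, so the dose is not known. The record gives no direction; compounds strong in two other growth screens of this library score well above the rest, so higher reads as stronger inhibition. Of about 53,000 compounds tested this way, about 900 (1.7%) reached 50% or more in at least one test.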

Protein sequences, listed by entry. Tags and fused reporters are not part of them.
UniProt E9BF75, entry or part of it: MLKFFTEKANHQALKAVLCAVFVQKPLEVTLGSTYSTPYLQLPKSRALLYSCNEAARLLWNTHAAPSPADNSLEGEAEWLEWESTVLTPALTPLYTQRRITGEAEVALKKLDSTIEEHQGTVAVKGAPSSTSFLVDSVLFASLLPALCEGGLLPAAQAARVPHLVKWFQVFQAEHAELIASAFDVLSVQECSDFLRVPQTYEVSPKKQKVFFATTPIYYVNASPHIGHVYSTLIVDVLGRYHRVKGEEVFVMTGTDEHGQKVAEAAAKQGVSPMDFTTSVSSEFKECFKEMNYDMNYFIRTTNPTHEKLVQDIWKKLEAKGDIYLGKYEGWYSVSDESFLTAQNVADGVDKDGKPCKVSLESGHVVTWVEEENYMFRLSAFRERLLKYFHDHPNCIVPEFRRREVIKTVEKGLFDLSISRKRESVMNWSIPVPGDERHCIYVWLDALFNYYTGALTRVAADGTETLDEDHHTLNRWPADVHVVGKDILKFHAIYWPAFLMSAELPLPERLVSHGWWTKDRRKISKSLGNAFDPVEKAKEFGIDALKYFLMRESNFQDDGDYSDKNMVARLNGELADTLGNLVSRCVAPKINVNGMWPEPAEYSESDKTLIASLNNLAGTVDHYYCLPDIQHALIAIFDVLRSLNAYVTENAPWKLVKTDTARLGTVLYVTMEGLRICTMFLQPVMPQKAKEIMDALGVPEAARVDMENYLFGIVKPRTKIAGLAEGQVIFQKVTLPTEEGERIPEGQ

Results are percentages, as filed. How 0% and 100% were set is not recorded. Most values in the screen are low, and negative values occur. Compounds were drawn at random from those tested, without regard to their results. A dash means the value is not listed here; it may have been measured.

* O=C1COc2ccc(S(=O)(=O)N3CCOCC3)c3c2N1CCC3 : Mtb heat-shock: -24.43%; LdMetRS: 4.348%; Mtb growth Cornell: -10.88%
* CSc1ncccc1C(=O)N1CCCC1c1ccc(C(=O)N(C)C)s1 (stereo unspecified) : Mtb heat-shock: -9.202%; LdMetRS: 9.254%; Mtb growth Cornell: -13.8%
* COc1c(C)cnc(CNC(=O)CCOCC(C)C)c1C : Mtb heat-shock: 3.001%; LdMetRS: 15.12%; Mtb growth Cornell: 29.55%
* O=C(Nc1ccc(CCN2CCC(O)CC2)cc1)C1CCCCC1 : Mtb heat-shock: 3.261%; LdMetRS: 6.667%
* CN(C)Cc1nnc(C2CCCN(c3cc(C(F)(F)F)ccn3)C2)n1C (stereo unspecified) : Mtb heat-shock: -1.458%; LdMetRS: 9.045%; Mtb growth Cornell: 22.78%
* [H][C@@]12CCN(Cc3ccoc3)C[C@@]1([H])O[C@@H](C(=O)NCCOC)C2 : Mtb heat-shock: 2.845%; Mtb growth Cornell: -3.219%
* COc1c(CNC2CCSc3ccc(F)cc32)c(C)nn1C (stereo unspecified) : LdMetRS: 12.89%
* CCOC(=O)N1CCC2(CC1)N=C(CCC(C)C)NC2=O : Mtb heat-shock: 12.74%; LdMetRS: -4.337%; Mtb growth Cornell: -7.806%
* O=C(O)C(F)(F)F.[H][C@@]12COC[C@]1(CN1CCOCC1)CN(S(C)(=O)=O)C2 : Mtb heat-shock: -16.1%; Mtb growth Cornell: 23.15%
* CC(C)CNC(=O)NC(=O)CNc1ccccc1SCC(C)C#N (stereo unspecified) : Mtb heat-shock: 4.999%; LdMetRS: 10.34%; Mtb growth Cornell: 6.793%
* CCc1ccc2c(C3CN(CC4CCC4)C3)ncn2c1.O=C(O)C(F)(F)F : Mtb heat-shock: 59.23%; Mtb growth Cornell: 77.11%
* Cc1cnc(-c2nc(O)c3c(n2)CN(C(=O)C2CCCC2)CC3)cn1 : Mtb heat-shock: 4.95%; LdMetRS: 17.09%; Mtb growth Cornell: -5.983%
* Cc1csc(CN2CCn3c(COc4cccnc4)cnc3C2C)n1 (stereo unspecified) : LdMetRS: 14.08%
* Cc1nnc2n1CCN(C(=O)CN1C(=O)CCCc3ccccc31)C2 : Mtb heat-shock: -4.769%; LdMetRS: -47.83%; Mtb growth Cornell: -27.54%
* O=C(O)CC(O)(CC(=O)O)C(=O)O.[H][C@@]12CC[C@@](O)(c3ccc(C)cn3)[C@]1([H])CN(Cc1cccc(Cl)c1Cl)C2 : Mtb heat-shock: 90.52%; Mtb growth Cornell: 69.29%
* Cc1cc(NC2CCN(CC3CCCO3)CC2)n2nc(C)c(C)c2n1 (stereo unspecified) : Mtb heat-shock: -7.771%; LdMetRS: 10.65%
* O=C(O)C(F)(F)F.[H][C@@]12CCCO[C@]1([H])[C@H](N(C)Cc1ccco1)CN(C(=O)c1cnccn1)C2 : Mtb heat-shock: -32.23%; Mtb growth Cornell: 5.024%
* O=C(c1cccnc1SC/C=C/c1ccccc1)N1CCOCC(O)C1 (stereo unspecified) : Mtb heat-shock: -11.77%; LdMetRS: 11.56%; Mtb growth Cornell: 13.46%
* COc1cccc(N2CCC(N3C[C@@H](NC(C)=O)[C@H](C(C)C)C3)CC2)c1 : Mtb heat-shock: -7.091%; LdMetRS: 8.108%; Mtb growth Cornell: 34.03%

For reference, 2 entries once more:

SMILES	Mtb heat-shock	LdMetRS	Mtb growth Cornell
O=C1COc2ccc(S(=O)(=O)N3CCOCC3)c3c2N1CCC3	-24.43%	4.348%	-10.88%
COc1c(CNC2CCSc3ccc(F)cc32)c(C)nn1C (stereo unspecified)	-	12.89%	-

The values are deposited in ChEMBL (CHEMBL3988442, “University of Dundee, Small-Polar-MMV Screening Library” (2021)).